Experimental data as given in patent publication US20040170955A1 (University of Texas, published 2004).
Results are given in words; binding and its absence hold for the method and conditions named. Some binding calls cover weakened binding; strength is not graded here.

Chains of the proteins cited; added tags and fusions are not shown. Residues count along the entry.
UniProt P05106, residues 742-788: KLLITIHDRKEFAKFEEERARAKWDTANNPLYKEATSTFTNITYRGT
UniProt P18084, residues 743-799: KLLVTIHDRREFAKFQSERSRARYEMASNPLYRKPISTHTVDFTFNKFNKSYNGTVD

Assays:
[1] = molecular target: GST-β3cyto (GST fusion protein of the β3 integrin cytoplasmic domain) (UniProt P05106); assay: phage binding to coated GST fusion proteins, colony counts (FIG. 9)
[2] = molecular target: GST-β5cyto (GST fusion protein of the β5 integrin cytoplasmic domain) (UniProt P18084); assay: phage binding to coated GST fusion proteins, colony counts (FIG. 10)

| Binder | binding [1] | binding [2] |
| --- | --- | --- |
| GLDTYRGSP (whole phage tested) [phage displaying GLDTYRGSP (SEQ ID NO:96)] | binds |  |
| YDWWYPWSW (whole phage tested) [phage displaying YDWWYPWSW (SEQ ID NO:95)] | binds |  |
| CLRQSYSYNC [phage displaying … (SEQ ID NO:104)] | binds |  |
| SDNRYIGSW (whole phage tested) [phage displaying SDNRYIGSW (SEQ ID NO:97)] | binds |  |
| CEQRQTQEGC [phage displaying … (SEQ ID NO:93)] | binds |  |
| CFQNRC [phage displaying CFQNRC (SEQ ID NO:102)] | binds |  |
| DEEGYYMMR (whole phage tested) [phage displaying DEEGYYMMR (SEQ ID NO:110)] |  | binds |
| KQFSYRYLL (whole phage tested) [phage displaying KQFSYRYLL (SEQ ID NO:111)] |  | binds |
| CEPYWDGWFC [phage displaying … (SEQ ID NO:106)] |  | binds |
| VVISYSMPD (whole phage tested) [phage displaying VVISYSMPD (SEQ ID NO:112)] |  | binds |
| CYIWPDSGLC [phage displaying … (SEQ ID NO:105)] |  | binds |
